PubChem BioAssay AID2685 (National Center for Advancing Translational Sciences (NCATS), 2010)
The list shows a part of the results. Further columns of the screen follow, without active or inactive calls. Compounds called inactive in the main read-out are mostly missing here. The note in brackets gives the kind of curve behind each potency; many fits are weak.

Assay: qHTS Assay for Lipid Storage Modulators in Drosophila S3 Cells;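 as to cell number change: cells counted by Cell Tracker Red CMTPX staining in the red channel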
Conditions: BODIPY lipid droplet fluorescence, 18-24 h; for cell number change: measured here: cell count max response, cells fed with added oleic acid
Procedure, shortened: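 Drosophila S3 cells got compounds at several concentrations plus oleic acid (400 uM solution). Laser-scanning cytometry with 488 nm excitation read lipid droplets at 500-530 nm and cells at 575-640 nm. Percent activity was relative to 20 uM Triacsin C.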

[1] = measured here: cell number channel AC50, cells fed with added oleic acid
[2] = measured here: lipid fluorescence (Fed channel) AC50, cells fed with added oleic acid

| SMILES | cell number change | AC50 [1] | AC50 [2] |
| --- | --- | --- | --- |
| N/C(=N\[N+](=O)[O-])N1CCN(C(=O)OC2CCCC2)CC1 | -14.4% | – | – |
| Cc1cc(C)[n+](C2C3CC4CC(C3)CC2C4)o1 (configuration not stated) | -61.5% | 18.4 µM [falling, single point] | 20.6 µM [falling, single point] |
| COC(=O)C1=C(c2ccc(F)cc2OCc2ccccc2)C[C@@H]2CC[C@H]1N2C(=O)NCc1ccc(C)cc1 | -5.16% | – | 6.51 µM [falling, partial curve, poor fit] |
| COc1ccc(NC(=O)N2C[C@@H]3C[C@@H](C2)c2cccc(=O)n2C3)cc1 | -16.1% | – | 1.3 µM [falling, full curve, poor fit] |
| CC(ON1CC1(C(F)(F)F)C(F)(F)F)(C(N)=O)C(N)=O (configuration not stated) | -3.29% | – | 29.1 µM [falling, single point] |
| COC(=O)C1=C(c2ccc(S(C)(=O)=O)cc2)C[C@@H]2CC[C@H]1N2C | 4.93% | – | – |
| CCCNC1=C(C)C(=O)C2=C(C1=O)C(COC(N)=O)[C@]1(OC)C3NC3CN21 (some centres not stated) | 19.7% | – | – |
| CCN1CCN(Cc2cc(Br)ccc2O)CC1 | 21.3% | – | 0.116 µM [rising, full curve, poor fit] |
| Cc1cc(C)[n+](CCCC[n+]2c(C)cc(C)cc2C)c(C)c1 | 1.45% | 6.51 µM [falling, single point] | 0.651 µM [rising, partial curve, poor fit] |
| CCOc1cccc(=NC2CCCCC2)c2c(C)n(C)c(C)c12 | -66.6% | 3.66 µM [falling, full curve] | 2.06 µM [falling, full curve] |
| COC(=O)C1=C(c2ccc3ccccc3c2)C[C@@H]2CC[C@H]1N2C(=O)NCc1ccc(C(F)(F)F)cc1 | -1.68% | – | 0.0184 µM [rising, full curve, poor fit] |
| CC1CN=C(Nc2cccc3ccccc23)S1 (configuration not stated) | -7.31% | – | – |
| CCN1CCC(N(C)C2CCCCC2)CC1 | -5.41% | – | 20.6 µM [falling, single point] |
| O=[N+]([O-])c1cccc(O)c1 | -8.93% | – | 0.116 µM [falling, single point] |
| COC(=O)C1=C(c2ccc(F)cc2OCc2ccccc2)C[C@@H]2CC[C@H]1N2C(=O)NCCOc1ccc(OC)cc1 | -9.75% | – | 0.411 µM [falling, partial curve, poor fit] |
| COc1ccc(C(=O)NC(=S)N2C[C@H]3C[C@H](C2)c2cccc(=O)n2C3)cc1OC | 23% | – | 6.51 µM [rising, single point] |
| Cc1cccc(-c2nc3ccc(C(=O)N4CCC5(CC4)OCCO5)cc3nc2-c2cccc(C)c2)c1 | -8.96% | – | 2.59 µM [falling, partial curve] |
| CCOC(=O)C1=C(N)OC2=C(C(=O)CCC2)C12C(=O)N(CC(N)=O)c1ccccc12 (configuration not stated) | -17.7% | – | 6.51 µM [rising, single point] |
| N#CC1=C(N)Oc2c(c(=O)oc3ccccc23)C1c1ccc(OC(=O)N2CCOCC2)cc1 (configuration not stated) | -25.8% | – | 5.17 µM [rising, single point] |
| O=C(Cc1cccs1)N1CCC2(CC1)OCCO2 | 4.17% | – | 4.61 µM [falling, full curve] |

| SMILES | cell number change | AC50 [1] | AC50 [2] |
| --- | --- | --- | --- |
| CC1Oc2cc3c(-c4c(O)cc(O)c5c(O)c6c(cc45)OC(C)C(C)C6=O)c(O)cc(O)c3c(O)c2C(=O)C1C (configuration not stated) | -22.4% | – | – |
| CCCCSP1(=S)NCCCN1 | 8.63% | – | 29.1 µM [rising, single point] |
| O=C(N/N=C/c1c(O)n(C2CC2)c(=S)[nH]c1=O)c1ccccc1O | 13.8% | – | – |
| O=c1nc(/C=C/c2ccc(Cl)cc2Cl)cc(C(F)(F)F)[nH]1 | -37.6% | 18.4 µM [falling, single point] | – |
| CCC(C)NC(=O)c1c(N)n(Cc2ccc3c(c2)OCO3)c2nc3ccccc3nc12 (configuration not stated) | -39.5% | 29.1 µM [falling, single point] | 1.64 µM [rising, partial curve] |
| CN[C@@H]1C[C@@H](c2ccc(Cl)c(Cl)c2)c2ccccc21 | -66.4% | 20.6 µM [falling, single point] | – |
| CC(=O)Nc1cccc([As](=O)(c2cccc(NC(C)=O)c2)c2cccc(NC(C)=O)c2)c1 | -19.6% | – | – |
| CC(C)OCCCNC(=O)c1c(N)n(CC2CCCO2)c2nc3ccccc3nc12 (configuration not stated) | -26.4% | – | 25.9 µM [falling, partial curve] |
| COc1ccc(-[n+]2c(-c3ccccc3)cc(-c3ccc(C)cc3)cc2-c2ccccc2)cc1 | -22.8% | – | – |
| CCC(=NCCc1c[nH]c2ccccc12)c1c(O)n(-c2ccc(C)cc2)c(=O)[nH]c1=O | -14.8% | – | 16.4 µM [rising, partial curve] |
| NS(=O)(=O)c1ccc(N=Cc2c(O)n(-c3ccccc3)c(=O)[nH]c2=O)cc1 | -11.3% | – | – |
| CN1CCc2nc3sc(C(=O)NC4CC4)c(N)c3cc2C1 | -10.1% | – | – |
| CCC(C)N1C(=O)NC(=O)C2(Cc3cc(C)ccc3N(C)C2)C1=O (configuration not stated) | 3.38% | – | – |
| O=Cc1cn(Cc2cccc([N+](=O)[O-])c2)c2ccccc12 | -7.69% | – | 6.51 µM [rising, partial curve] |
| O=c1[nH]c(=S)[nH]c(O)c1N=Nc1ccc2c(c1)OCO2 | – | – | 0.00461 µM [rising, full curve, poor fit] |
| Oc1ccccc1CN(CCc1ccccc1)Cc1ccccc1 | -5.11% | – | 0.58 µM [rising, single point] |
| CCC(C)n1c(O)c(C=Nc2cccc(C(F)(F)F)c2)c(=O)[nH]c1=S (configuration not stated) | -29.7% | – | 7.31 µM [falling, partial curve, poor fit] |
| Cc1cc(N)n(C2CCN(C)CC2)n1 | -20.2% | – | 3.66 µM [falling, full curve] |
| CCOP(=O)(OCC)C(O)c1cccc([N+](=O)[O-])c1 (configuration not stated) | -74.9% | 0.651 µM [falling, partial curve] | 0.206 µM [falling, full curve] |
| N=Cc1c(O)n(-c2cccc(Cl)c2)c(=O)[nH]c1=O | – | – | 23.1 µM [falling, partial curve] |
